Library compounds against nucleic acid targets

Calls as published in the ROBIN set (doi:10.1002/anie.202211358).

Oligonucleotides screened, 5′ to 3′:
PreQ1: PreQ1 riboswitch RNA pseudoknot, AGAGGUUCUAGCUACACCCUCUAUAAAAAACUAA. From B. subtilis. About 170 hits among about 24,000 compounds.
TPP: TPP riboswitch RNA three-way junction, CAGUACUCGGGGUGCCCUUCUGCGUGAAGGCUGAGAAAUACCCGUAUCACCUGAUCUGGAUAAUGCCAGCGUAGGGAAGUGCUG. About 160 hits among about 24,000 compounds.
SAM-II: SAM-II riboswitch RNA pseudoknot, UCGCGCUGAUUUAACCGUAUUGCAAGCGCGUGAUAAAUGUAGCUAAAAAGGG. About 200 hits among about 21,000 compounds.

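Compounds were printed on reactive glass slides in duplicate spots, a dye-labelled oligonucleotide was laid over them, and the fluorescence left after washing was read. For the PreQ1, TPP and SAM-II riboswitches the laboratory earlier reported (doi:10.1038/s41467-019-09493-3) 1 µM RNA, 2 h, and a rule that included a mean Z-score above 3 (spot signal-to-noise against the whole library), a score well above that on a control array, and duplicate spots agreeing (coefficient of variation under 100). The data file gives only the calls; its cut-offs may differ, and compounds hitting several targets are kept. A missing hit is not proof of no binding, and a hit is not a measured affinity.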 Key: yes = hit, no = tested without a hit. Compounds were drawn at random from those tested, without regard to their results. A dash means that no call is listed here.

| Compound | PreQ1 | TPP | SAM-II |
|---|---|---|---|
| `CCCCNc1nc2c(c(=O)n(C)c(=O)n2C)n1C` | no | no | no |
| `Cc1cccc(C)c1Nc1c(-c2cccs2)nc2ncccn12` | no | no | no |
| `c1ccc2[nH]/c(=N\N=C3CCCCC3)ccc2c1` | no | no | no |
| `CCCCN(C)C(=O)C1CCC(CNc2c(N3CCC(C)CC3)c(=O)c2=O)CC1` (configuration not stated) | no | no | - |
| `COC(=O)CNc1cc(C)nc2nc(-c3ccccc3)nn12` | no | no | - |
| `N#CC1=C(N)Oc2c(c(=O)sc3ccccc23)C1c1ccc(C(F)(F)F)cc1` (configuration not stated) | no | no | no |
| `COc1ccccc1C(=O)N1CCN(C(=O)c2nonc2N)CC1` | no | no | - |
| `O=C(CCc1cccnc1)N1Cc2ccccc2C(O)C1` (configuration not stated) | no | no | no |
| `COc1ccc(CCNCc2ccc(Cl)cc2)cc1` | no | no | no |
| `Cn1ncc(N)c1C(=O)O` | no | no | no |
| `COc1cc2cc(CN3C[C@@H](CO)[C@H](CO)C3)c(=O)[nH]c2cc1OC` | no | no | no |
| `CC(C)NCC1CCc2cc(CO)c([N+](=O)[O-])cc2N1` (configuration not stated) | no | no | no |
| `CC(C)(C)c1ccc(C(=O)Oc2cc(N)n(S(=O)(=O)c3ccccc3)n2)cc1` | no | no | no |
| `O=C(c1cnn2cc(CCO)cnc12)N1CCC2(C=Cc3ccccc32)CC1` | no | no | no |
| `CSc1nc2c(c(Nc3ccc(C)cc3)n1)CCC2` | no | no | - |
| `CCc1nc(C)sc1CNC(C)Cc1ccccc1F` (configuration not stated) | no | no | no |
| `CCc1cc(CC)c(CO)c(CC)c1C=NO` | no | no | no |
| `Cc1cc2cc3c(=O)[nH]c(=O)[nH]c3nc2cc1C` | no | no | no |
| `COC(=O)[C@H]1C[C@@H](O)CCN1S(=O)(=O)c1ccc(-c2ccccn2)s1` | no | no | no |
| `CCCS(=O)(=O)n1nc(-c2ccc(OCC)cc2)cc1N` | no | no | no |
| `N#CC1=C(N)Oc2[nH]nc(-c3ccc(F)cc3)c2C1c1ccoc1` (configuration not stated) | no | no | no |
| `COc1ccccc1N1CCN(C(=O)[C@H](O)c2ccccc2)CC1=O` | no | no | no |
| `OC(CN1CCC(Cc2ccc(F)cc2)CC1)c1ccc(Cl)cc1` (configuration not stated) | no | no | no |
| `CSc1cccc(Nc2ncc3cc(-c4c(Cl)cccc4Cl)c(=O)n(C)c3n2)c1` | no | no | no |
| `CCOC(=O)C1(CC)CC(C)(c2csc(Nc3ccccc3Cl)n2)OC1=O` (configuration not stated) | no | no | no |
| `Cc1ccc(CN(C)C(=O)[C@@H](O)Cc2ccccc2)o1` | no | no | no |
| `Cc1ccsc1CNc1ccc(C(=O)N(C)Cc2cc(C(C)C)on2)cc1` | no | no | no |
| `c1ccc(-c2cc(Nc3ccc(N4CCCC4)cc3)ncn2)cc1` | no | no | - |
| `COc1ccc(CCNc2nc(-c3ccc(OC)c(OC)c3)cs2)cc1OC` | no | no | no |
| `CC(C)(C)c1ccc(CSc2nnc(N)s2)cc1` | no | no | no |
| `COc1ccc(Cl)cc1NC1OC(=O)c2ccccc21` (configuration not stated) | no | no | no |
| `COc1ccc(C(O)C(=O)N2CCCN(c3ccncc3C)CC2)cc1` (configuration not stated) | no | no | no |
| `N[C@@H]1CC[C@@H](NS(=O)(=O)N2CCOCC2)C1` | no | no | no |
| `C#CCSc1nnnn1-c1ccc(Br)c(C)c1` | no | no | no |
| `COc1ccc(Cl)c(Cn2c(NCCO)nc3c2c(=O)n(C)c(=O)n3C)c1` | no | no | - |
| `Cc1nc(N2CC[C@@H](c3ccc4ccccc4c3)[C@H](O)C2)no1` | no | no | no |
| `COc1cccc(Nc2nc3ccccc3nc2-n2nc(C)cc2C)c1` | no | no | no |
| `COc1ccc2c(c1OC)C(=O)OC2Nc1nc(-c2ccc(Br)cc2)cs1` (configuration not stated) | no | no | no |
| `Cc1ccc(N2C(=O)CC(NCC3CCCO3)C2=O)cc1` (configuration not stated) | no | no | no |
| `Cc1cccc(NC(=O)Cn2nnc(C(=O)Nc3ccc(Cl)cc3)c2N)c1C` | no | no | - |
| `O=C(COc1cc(Cl)c(Cl)cc1Cl)Nc1ccc([N+](=O)[O-])cc1Cl` | no | no | no |
| `CCc1nnc2c(Nc3ccc(C(=O)OC)cc3)nc3ccccc3n12` | no | no | - |
| `CCN1CCN(C(=O)Cc2c(C)nc(N)nc2C)[C@H]2CS(=O)(=O)C[C@H]21` | no | no | no |
| `Fc1cccc(Nc2nc3ccccc3c3nncn23)c1` | no | no | no |
| `CCCC(=O)Oc1ccc(NC2=NS(=O)(=O)c3ccccc32)cc1` | no | no | no |
| `O=C(Nc1ncc(SCCN2CCCC2)s1)[C@]1(c2ccc([S+](=O)([O-])C3CC3)cc2)C[C@@H]1C1CCCCC1` | no | no | no |
| `CC(C)Cc1nc(-c2ccc(F)c(CO)c2)n[nH]1` | no | no | no |

The last 4 entries again:

| Compound | PreQ1 | TPP | SAM-II |
|---|---|---|---|
| `Fc1cccc(Nc2nc3ccccc3c3nncn23)c1` | no | no | no |
| `CCCC(=O)Oc1ccc(NC2=NS(=O)(=O)c3ccccc32)cc1` | no | no | no |
| `O=C(Nc1ncc(SCCN2CCCC2)s1)[C@]1(c2ccc([S+](=O)([O-])C3CC3)cc2)C[C@@H]1C1CCCCC1` | no | no | no |
| `CC(C)Cc1nc(-c2ccc(F)c(CO)c2)n[nH]1` | no | no | no |